## Assay results

Source: PubChem BioAssay AID1159506 (NCATS, 2015).

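Genome-wide siRNA knockdown in TC32 Ewing sarcoma cells, comparing luciferase light from an NR0B1-promoter reporter with a CMV-promoter reporter 48 hours after transfection. Each siRNA was applied at 20 nM. A z-score of the log NR0B1-over-CMV signal, less the median of siRNAs with the same seed; more negative means a stronger specific loss of the NR0B1 reporter.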

The strongest results of the screen are mostly left out here. Sequences are the guide (antisense) strand, without overhang.

| # | Sequence | target gene | seed-corrected z-score |
|---|---|---|---|
| 1 | `AAUAGUAACAUCUCCAGUA` | ARL1 | 0.2792 |
| 2 | `UCAUGGGAAAGGGUACAGG` | ZC3HAV1L | 0.08289 |
| 3 | `UACAGGGUCAGACUCCUCC` | SIGLEC7 | 0.67 |
| 4 | `UUUAGGGUACUGCAUCUCC` | KDM2A | 1.196 |
| 5 | `UUUUCGUGCAGAAUCAUGG` | CC2D2A | 0.5251 |
| 6 | `UAAGAUGCUUCGGAAUUUG` | RNPEP | 1.061 |
| 7 | `UUAGAGUCCGGUGUGCUGU` | TMLHE | 0.929 |
| 8 | `UAUGUGCUGAGAUUCUCGA` | KANK2 | 0.1344 |
| 9 | `UUCCAUUCUAUUCCAAUCU` | COX7B2 | 0.7131 |
| 10 | `UCAUCCGUCACUUUGAAGC` | LINC01020 | -0.7424 |
| 11 | `UCAGAUAGGACAUCCAGGG` | SLC2A1 | -0.01177 |
| 12 | `UGCGUUAUGGAUUACUUGG` | ZNF528 | 0.25 |
| 13 | `AGAUGUAAAGUUCACUUCC` | TPX2 | -0.08267 |
| 14 | `UCGGUUGAUAAAAUUUGCC` | MICAL3 | 0.1228 |
| 15 | `UUCAUUGUUGUACUCGAGG` | MEX3A | 0.1848 |
| 16 | `AUAUGUAUGGUUUCAUUCG` | MAS1L | 0.8669 |
| 17 | `AGUCUCUUCACAGAUAACC` | ZNF784 | 0.5737 |
| 18 | `UCCGGGUUAAAAGACAUGC` | WDFY2 | -1.111 |
| 19 | `UCUUUAUCUAGCACGAAGC` | NOP14 | 0.1112 |
| 20 | `UCUAAUAGGAGUCACAUUG` | RPL21P44 | -0.6725 |
| 21 | `UUUGGUAGAGGGUUCUUCC` | COIL | 0.1397 |
| 22 | `UUUAGACUGAGUUGAGCUC` | KIN | 0.1365 |
| 23 | `UUCCCAGCUAGGAUAGCCC` | FAM71C | -0.263 |
| 24 | `UUGGCUUUUAUCACCUUCA` | CDRT1 | -0.03234 |
| 25 | `UGCAUUUCAAUGUUGAGCC` | TLE2 | -0.001661 |
| 26 | `AUGGUUGUCAGCUCCAUGC` | MIR205HG | 2.562 |
| 27 | `UGCAUUUAGAUUUUCGUUG` | HMMR | 0.5748 |
| 28 | `UAAGGCGAUACUUAUGUCC` | LXN | 0.01355 |
| 29 | `AUCGUUUUAUGUAACAUCU` | PTPN20 | 0.4792 |
| 30 | `AAUGAUCCCAAUAAUGAGC` | SLC7A3 | 0.5213 |
| 31 | `UCUUACACCAUCAAUAUCC` | GPHN | 0.2639 |
| 32 | `AACUCGUUCAUGGUCACGC` | AKT1 | -1.357 |
| 33 | `UCAUCGAAAAUGUUCCAUC` | KDELC2 | -0.8999 |
| 34 | `UUUGGAGAAACUGAUUUCC` | LOC729810 | 0.7981 |
| 35 | `AAACUGACCAAAUCCCUCC` | INTS5 | -0.289 |
| 36 | `UGCACAUUCAGGAACAGGC` | GPAT2 | 0.3804 |
| 37 | `UAGAUGGUACCUUCACUGG` | WDR55 | 0.3584 |
| 38 | `AUUAUAUCCAUAACAUCUG` | L2HGDH | 0.6186 |
| 39 | `UAGGUGAUUAGGUUUUCCA` | PGLYRP4 | -0.3337 |
| 40 | `AAGACAAUAAGUUCAGGUG` | SCARA5 | 0.6328 |
| 41 | `UUUGCGCUCAAUCAGCUUC` | KAT2A | -0.333 |
| 42 | `AAGAUUGCAAACAUGAACC` | POLR2B | -0.7486 |
| 43 | `UAAGGGUCUGGGUAGUUAG` | MFRP | -0.2402 |
| 44 | `AUUAGCACAAUGAUUUUCC` | VN2R1P | 0.1028 |
| 45 | `UUCUUGAUCACUACAUGUC` | SLAIN1 | 0.4466 |
| 46 | `AAAGGUGGAAGUCUCAGAC` | PRG2 | -0.7475 |
| 47 | `UCUUGGUCAACACCAUUAC` | TMOD3 | -0.2484 |
| 48 | `UGCUGGUCGAUCAAUCUGG` | RUVBL2 | 0.122 |
| 49 | `UUAGCAGUCAGAAUACCAC` | KRT9 | 0.1651 |
| 50 | `UUGGUGACCAGAGUCUGGA` | CREB3L1 | 0.5605 |
| 51 | `AUAGCUAAAACUGUACUCC` | SPTSSA | 0.9417 |
| 52 | `UCUGUUAGGAAGUUUAGCC` | DCUN1D3 | -0.6744 |
| 53 | `AAUAGUGCUUGAUCUAUCG` | ZBTB33 | -0.2426 |
| 54 | `UUUGGUAUCUCGGUUGAUG` | SFRP2 | 0.9801 |
| 55 | `UUCUCGUUGAAGAUGCCGC` | CCDC110 | -1.17 |
| 56 | `UUUCAUUGUACAAAGCUCC` | POU1F1 | -0.2956 |
| 57 | `UAUAGGACCAAACCGAUGC` | NDUFA9 | 0.7929 |
| 58 | `UCAUGAUCACCGCUUGUGG` | MLXIP | -1.989 |
| 59 | `AAACUUCCCACUCUUGUAG` | UBE2M | -0.7998 |
| 60 | `UUUCCGAAUCAAGAACAGC` | FAM135A | -0.6958 |
| 61 | `UUAUCUUCGCCCACUACUC` | MPHOSPH8 | 0.914 |
| 62 | `UACGUGUACAUCACGGGCU` | COL8A1 | -0.2221 |
| 63 | `UUCAGUCGCACCUUUAAGG` | FIGLA | 0.6809 |
| 64 | `AUACAGUCUUCUGAAAUUC` | SCAMP3 | 0.1041 |
| 65 | `AUAGAACUUGCCUUGCUCC` | TNFRSF13B | 0.01577 |

Repeated from the top, 7 entries:

Sequence	target gene	seed-corrected z-score
AAUAGUAACAUCUCCAGUA	ARL1	0.2792
UCAUGGGAAAGGGUACAGG	ZC3HAV1L	0.08289
UACAGGGUCAGACUCCUCC	SIGLEC7	0.67
UUUAGGGUACUGCAUCUCC	KDM2A	1.196
UUUUCGUGCAGAAUCAUGG	CC2D2A	0.5251
UAAGAUGCUUCGGAAUUUG	RNPEP	1.061
UUAGAGUCCGGUGUGCUGU	TMLHE	0.929